These results are taken from article PMC4965873.

Results are given in words; binding and its absence hold for the method and conditions named. In cells and extracts the contact can be indirect. Here binding means that the protein was enriched with, or labelled near, the bait; the list need not be complete.

Sequences and labels used below:
B1: CCT8 (protein, UniProt P42932 1-548)
chain: MALHVPKAPGFAQMLKDGAKHFSGLEEAVYRNIQACKELAQTTRTAYGPNGMNKMVINRLEKLFVTNDAATILRELEVQHPAAKMIVMASHMQEQEVGDGTNFVLVFAGALLELAEELLRIGLSVSEVISGYEIACKKAHEILPELVCCSAKNLRDVDEVSSLLRTSIMSKQYGSETFLAKLIAQACVSIFPDSGNFNVDNIRVCKILGSGIYSSSVLHGMVFKKETEGDVTSVKDAKIAVYSCPFDGMITETKGTVLIKTAEELMNFSKGEENLMDAQVKAIAGTGANVIVTGGKVADIALHYANKYNIMLVRLNSKWDLRRLCKTVGATALPKLTPPVQEEMGHCDSVYLSEVGDTQVVVFKHEKEDGAISTIVLRGSTDNLMDDIERAVDDGVNTFKVLTRDKRLVPGGGATEIELAKQITSYGETCPGLEQYAIKKFAEAFEAIPRALAENSGVKANEVISKLYSVHQEGNKNVGLDIEAEVPAVKDMLEASILDTYLGKYWAIKLATNAAVTVLRVDQIIMAKPAGGPKPPSGKKDWDDDQND
B2: catalytic subunit CD of PI3K (enzyme, UniProt O35904 1-1043)
chain: MPPGVDCPMEFWTKEESQSVVVDFLLPTGVYLNFPVSRNANLSTIKQVLWHRAQYEPLFHMLSDPEAYVFTCVNQTAEQQELEDEQRRLCDIQPFLPVLRLVAREGDRVKKLINSQISLLIGKGLHEFDSLRDPEVNDFRTKMRQFCEEAAAHRQQLGWVEWLQYSFPLQLEPSARGWRAGLLRVSNRALLVNVKFEGSEESFTFQVSTKDMPLALMACALRKKATVFRQPLVEQPEEYALQVNGRHEYLYGNYPLCHFQYICSCLHSGLTPHLTMVHSSSILAMRDEQSNPAPQVQKPRAKPPPIPAKKPSSVSLWSLEQPFSIELIEGRKVNADERMKLVVQAGLFHGNEMLCKTVSSSEVNVCSEPVWKQRLEFDISVCDLPRMARLCFALYAVVEKAKKARSTKKKSKKADCPIAWANLMLFDYKDQLKTGERCLYMWPSVPDEKGELLNPAGTVRGNPNTESAAALVIYLPEVAPHPVYFPALEKILELGRHGERGRITEEELQLREILERRGSGELYEHEKDLVWKMRHEVQEHFPEALARLLLVTKWNKHEDVAQMLYLLCSWPELPVLSALELLDFSFPDCYVGSFAIKSLRKLTDDELFQYLLQLVQVLKYESYLDCELTKFLLGRALANRKIGHFLFWHLRSEMHVPSVALRFGLIMEAYCRGSTHHMKVLMKQGEALSKLKALNDFVKVSSQKTTKPQTKEMMHMCMRQETYMEALSHLQSPLDPSTLLEEVCVEQCTFMDSKMKPLWIMYSSEEAGSAGNVGIIFKNGDDLRQDMLTLQMIQLMDVLWKQEGLDLRMTPYGCLPTGDRTGLIEVVLHSDTIANIQLNKSNMAATAAFNKDALLNWLKSKNPGEALDRAIEEFTLSCAGYCVATYVLGIGDRHSDNIMIRESGQLFHIDFGHFLGNFKTKFGINRERVPFILTYDFVHVIQQGKTNNSEKFERFRGYCERAYTILRRHGLLFLHLFALMRAAGLPELSCSKDIQYLKDSLALGKTEEEALKHFRVKFNEALRESWKTKVNWLAHNVSKDNRQ
B3: PTPRC (receptor, UniProt P06800 26-1293)
chain: QTPTPSDELSTTENALLLPQSDPLPARTTESTPPSISERGNGSSETTYHPGVLSTLLPHLSPQPDSQTPSAGGADTQTFSSQADNPTLTPAPGGGTDPPGVPGERTVPGTIPADTAFPVDTPSLARNSSAASPTHTSNVSTTDISSGASLTTLTPSTLGLASTDPPSTTIATTTKQTCAAMFGNITVNYTYESSNQTFKADLKDVQNAKCGNEDCENVLNNLEECSQIKNISVSNDSCAPATTIDLYVPPGTDKFSLHDCTPKEKANTSICLEWKTKNLDFRKCNSDNISYVLHCEPENNTKCIRRNTFIPERCQLDNLRAQTNYTCVAEILYRGVKLVKNVINVQTDLGIPETPKPSCGDPAARKTLVSWPEPVSKPESASKPHGYVLCYKNNSEKCKSLPNNVTSFEVESLKPYKYYEVSLLAYVNGKIQRNGTAEKCNFHTKADRPDKVNGMKTSRPTDNSINVTCGPPYETNGPKTFYILVVRSGGSFVTKYNKTNCQFYVDNLYYSTDYEFLVSFHNGVYEGDSVIRNESTNFNAKALIIFLVFLIIVTSIALLVVLYKIYDLRKKRSSNLDEQQELVERDDEKQLMDVEPIHSDILLETYKRKIADEGRLFLAEFQSIPRVFSKFPIKDARKPHNQNKNRYVDILPYDYNRVELSEINGDAGSTYINASYIDGFKEPRKYIAAQGPRDETVDDFWRMIWEQKATVIVMVTRCEEGNRNKCAEYWPSMEEGTRAFKDIVVTINDHKRCPDYIIQKLNVAHKKEKATGREVTHIQFTSWPDHGVPEDPHLLLKLRRRVNAFSNFFSGPIVVHCSAGVGRTGTYIGIDAMLEGLEAEGKVDVYGYVVKLRRQRCLMVQVEAQYILIHQALVEYNQFGETEVNLSELHSCLHNMKKRDPPSDPSPLEAEYQRLPSYRSWRTQHIGNQEENKKKNRNSNVVPYDFNRVPLKHELEMSKESEPESDESSDDDSDSEETSKYINASFVMSYWKPEMMIAAQGPLKETIGDFWQMIFQRKVKVIVMLTELVNGDQEVCAQYWGEGKQTYGDMEVEMKDTNRASAYTLRTFELRHSKRKEPRTVYQYQCTTWKGEELPAEPKDLVSMIQDLKQKLPKASPEGMKYHKHASILVHCRDGSQQTGLFCALFNLLESAETEDVVDVFQVVKSLRKARPGVVCSYEQYQFLYDIIASIYPAQNGQVKKTNSQDKIEFHNEVDGGKQDANCVRPDGPLNKAQEDSRGVGTPEPTNSAEEPEHAANGSASPAPTQSS
B4: INPP5D (enzyme, UniProt Q9ES52 1-1191)
chain: MPAMVPGWNHGNITRSKAEELLSRAGKDGSFLVRASESIPRAYALCVLFRNCVYTYRILPNEDDKFTVQASEGVPMRFFTKLDQLIDFYKKENMGLVTHLQYPVPLEEEDAIDEAEEDTVESVMSPPELPPRNIPMSAGPSEAKDLPLATENPRAPEVTRLSLSETLFQRLQSMDTSGLPEEHLKAIQDYLSTQLLLDSDFLKTGSSNLPHLKKLMSLLCKELHGEVIRTLPSLESLQRLFDQQLSPGLRPRPQVPGEASPITMVAKLSQLTSLLSSIEDKVKSLLHEGSESTNRRSLIPPVTFEVKSESLGIPQKMHLKVDVESGKLIVKKSKDGSEDKFYSHKKILQLIKSQKFLNKLVILVETEKEKILRKEYVFADSKKREGFCQLLQQMKNKHSEQPEPDMITIFIGTWNMGNAPPPKKITSWFLSKGQGKTRDDSADYIPHDIYVIGTQEDPLGEKEWLELLRHSLQEVTSMTFKTVAIHTLWNIRIVVLAKPEHENRISHICTDNVKTGIANTLGNKGAVGVSFMFNGTSLGFVNSHLTSGSEKKLRRNQNYMNILRFLALGDKKLSPFNITHRFTHLFWLGDLNYRVELPTWEAEAIIQKIKQQQYSDLLAHDQLLLERKDQKVFLHFEEEEITFAPTYRFERLTRDKYAYTKQKATGMKYNLPSWCDRVLWKSYPLVHVVCQSYGSTSDIMTSDHSPVFATFEAGVTSQFVSKNGPGTVDSQGQIEFLACYATLKTKSQTKFYLEFHSSCLESFVKSQEGENEEGSEGELVVRFGETLPKLKPIISDPEYLLDQHILISIKSSDSDESYGEGCIALRLETTEAQHPIYTPLTHHGEMTGHFRGEIKLQTSQGKMREKLYDFVKTERDESSGMKCLKNLTSHDPMRQWEPSGRVPACGVSSLNEMINPNYIGMGPFGQPLHGKSTLSPDQQLTAWSYDQLPKDSSLGPGRGEGPPTPPSQPPLSPKKFSSSTANRGPCPRVQEARPGDLGKVEALLQEDLLLTKPEMFENPLYGSVSSFPKLVPRKEQESPKMLRKEPPPCPDPGISSPSIVLPKAQEVESVKGTSKQAPVPVLGPTPRIRSFTCSSSAEGRMTSGDKSQGKPKASASSQAPVPVKRPVKPSRSEMSQQTTPIPAPRPPLPVKSPAVLQLQHSKGRDYRDNTELPHHGKHRQEEGLLGRTAMQ
B5: annexin A6 (protein, UniProt P14824 1-673)
chain: MAKIAQGAMYRGSVHDFPEFDANQDAEALYTAMKGFGSDKESILELITSRSNKQRQEICQNYKSLYGKDLIEDLKYELTGKFERLIVNLMRPLAYCDAKEIKDAISGVGTDEKCLIEILASRTNEQMHQLVAAYKDAYERDLESDIIGDTSGHFQKMLVVLLQGTRENDDVVSEDLVQQDVQDLYEAGELKWGTDEAQFIYILGNRSKQHLRLVFDEYLKTTGKPIEASIRGELSGDFEKLMLAVVKCIRSTPEYFAERLFKAMKGLGTRDNTLIRIMVSRSELDMLDIREIFRTKYEKSLYSMIKNDTSGEYKKALLKLCGGDDDAAGQFFPEAAQVAYQMWELSAVSRVELKGTVCAANDFNPDADAKALRKAMKGIGTDEATIIDIVTHRSNAQRQQIRQTFKSHFGRDLMADLKSEISGDLARLILGLMMPPAHYDAKQLKKAMEGAGTDEKTLIEILATRTNAEIRAINEAYKEDYHKSLEDALSSDTSGHFRRILISLATGNREEGGENRDQAQEDAQVAAEILEIADTPSGDKTSLETRFMTVLCTRSYPHLRRVFQEFIKKTNYDIEHVIKKEMSGDVKDAFVAIVQSVKNKPLFFADKLYKSMKGAGTDEKTLTRVMVSRSEIDLLNIRREFIEKYDKSLHQAIEGDTSGDFMKALLALCGGED
B6: DIAPH2 (protein, UniProt O70566 1-1098)
chain: MEELGAAASGAGGGGGGGEEHGGGRSNKRGAGNRAANEEETRNKPKLRDRITSFRKSATKREKPVIQHSIDYQTAVVEIPPALIVHDDRSLILSEKEVLDLFEKMMEDMNLNEEKKAPLRKKDFSIKREMVVQYISATSKSIVGSKVLGGLKNSKHEFTLSSQEYVHELRSGISDEKLLNCLESLRVSLTSHPVSWVNNFGYEGLGVLLDVLEKLLDKKQQENIDKKNQYKVIQCLKAFMNNKFGLQRILGDERSLLLLARAIDPKQQNMMTEIVKILSAICIVGEENILDKLLGGITAAAELNNRERFSPIVEGLENNEALHLQVACMQFINALVTSPYDLDFRIHLRNEFLRCGLKAMLPTLKEIENEGLDIQLRVFEENKEDDLSELSHRLNDIRAEMDDINEVYHLLYNMLKDTAAEPYLLSILQHFLLIRNDYYIRPQYYKIIEECVSQIVLHCSGMDPDFKYRQRIDFDFTHLLDACVNKAKVEENEQKAMEFSKKFDEEFTARQEAQAELQKRDEKIKELETEIQQLRGQGVPSAIPGPPPPPPLPGAGPCPPPPPPPPPPPPLPGVVPPPPPPLPGMPGIPPPPPPPLSGVPPPPPPPGGVFPLLSGPIELPYGMKQKKLYKPDIPMKRINWSKIEPKELSENCVWLKLKEEKYENADLFAKLALTFPSQMKGQRNTEAAEENRSGPPKKKVKELRILDTKTAQNLSIFLGSYRMPYEEIKNIILEVNEEMLSEALIQNLVKYLPDQNALRELAQLKSEYDDLCEPEQFGVVMSTVKMLRPRLTSILFKLTFEEHVNNIKPSIIAVTLACEELKKSESFKRLLELILLVGNYMNSGSRNAQSLGFKINFLCKIKDTKSADQKSTLLHFLAEICDEKYRDILKFPDELEHVESAGKVSAQILKSNLVAMEQSILHLEKNIKNFPPAESHHDKFVEKMMSFTQNAREQYDKLSTMHSNMLKLYESLGEYFIFDPNTVNMEEFFGDLNTFRTLFLEALKENHKRKEMEEKSRRAKLAKEKAEQEKLERQKKKKQLIDINKEGDETGVMDNLLEALQSGAAFRDRRKRIPRNPDNRRPPLERSRSRHNGAMSSK

The test deals with CBL-OST (mouse) (UniProt P22682). As to the kind of experiment: affinity purification with mass spectrometry; CBL-OST or CBLB-OST captured on Strep-Tactin Sepharose (1.5 h, 4°C) from postnuclear lysates (n-dodecyl-β-maltoside) of short-term expanded mouse CD4+ T cells, unstimulated or 30, 120, 300, 600 s after anti-CD3 + anti-CD4 cross-linking; eluted with 2.5 mM D-biotin; label-free LC-MS/MS against wild-type cells as control.
On to B1, for which the binding entry is recorded as “binds”.
Consider B2, for which the binding entry is recorded as “binds”.
With B3 the entry was “binds”; with B4, “binds”.
As for B5, the binding result was “binds”.
For the molecule B6, the binding result is listed as “binds”.
